Experimental data reported in PMC4871590.

Experiments:
[1] = molecular target: T1, GFP-B’α (Arabidopsis PP2A B’α subunit) (Arabidopsis thaliana) (UniProt O04375); assay: co-IP; AvrE1-C’ wild type and k1k2 mutant with PP2A B’ subunits co-expressed in N. benthamiana (S4B Fig); which partner was pulled down is not told
T1 sequence: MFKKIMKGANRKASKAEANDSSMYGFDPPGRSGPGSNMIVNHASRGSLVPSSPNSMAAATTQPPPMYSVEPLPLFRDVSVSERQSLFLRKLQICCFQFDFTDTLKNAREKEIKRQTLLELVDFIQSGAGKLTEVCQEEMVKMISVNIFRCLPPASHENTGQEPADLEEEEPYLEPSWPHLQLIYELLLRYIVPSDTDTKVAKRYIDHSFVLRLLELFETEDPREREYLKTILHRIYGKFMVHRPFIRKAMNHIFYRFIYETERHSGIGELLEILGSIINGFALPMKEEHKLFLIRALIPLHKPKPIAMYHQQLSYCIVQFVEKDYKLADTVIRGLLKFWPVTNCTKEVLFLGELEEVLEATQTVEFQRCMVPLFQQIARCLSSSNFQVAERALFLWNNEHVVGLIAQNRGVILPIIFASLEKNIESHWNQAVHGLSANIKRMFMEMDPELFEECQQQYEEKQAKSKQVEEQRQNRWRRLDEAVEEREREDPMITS

[2] = molecular target: T2, GFP-B’β (Arabidopsis PP2A B’β subunit) (Arabidopsis thaliana) (UniProt O04376); assay: as above
T2 sequence: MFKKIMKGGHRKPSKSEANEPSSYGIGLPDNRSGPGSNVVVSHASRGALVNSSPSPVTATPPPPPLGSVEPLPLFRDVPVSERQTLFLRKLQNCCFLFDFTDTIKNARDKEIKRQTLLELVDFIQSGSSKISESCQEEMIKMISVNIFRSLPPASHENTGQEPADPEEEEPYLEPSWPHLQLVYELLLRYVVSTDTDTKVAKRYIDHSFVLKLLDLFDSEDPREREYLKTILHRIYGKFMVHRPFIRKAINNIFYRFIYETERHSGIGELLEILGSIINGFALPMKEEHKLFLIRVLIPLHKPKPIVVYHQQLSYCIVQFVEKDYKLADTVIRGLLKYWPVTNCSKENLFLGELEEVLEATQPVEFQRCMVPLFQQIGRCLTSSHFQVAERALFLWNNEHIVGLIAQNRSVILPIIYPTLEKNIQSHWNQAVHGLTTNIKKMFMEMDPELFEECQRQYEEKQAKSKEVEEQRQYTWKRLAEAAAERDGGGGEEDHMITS

[3] = molecular target: T3, GFP-B’η (Arabidopsis PP2A B’η subunit) (Arabidopsis thaliana) (UniProt Q9LU89); assay: co-IP; GFP-IP: GFP fusions pulled down with anti-GFP polyclonal antibody and protein A-agarose from lysates of N. benthamiana leaves; co-precipitated AvrE1-HA fragments or HA-RIN4 detected with anti-HA, His-HopM1 (induced with Dex, 6 h) with anti-His; lysis buffer 50 mM Tris-HCl pH 7.5, 150 mM NaCl, 1% Nonidet P40, 0.5% sodium deoxycholate, 5 mM DTT; 4°C
T3 sequence: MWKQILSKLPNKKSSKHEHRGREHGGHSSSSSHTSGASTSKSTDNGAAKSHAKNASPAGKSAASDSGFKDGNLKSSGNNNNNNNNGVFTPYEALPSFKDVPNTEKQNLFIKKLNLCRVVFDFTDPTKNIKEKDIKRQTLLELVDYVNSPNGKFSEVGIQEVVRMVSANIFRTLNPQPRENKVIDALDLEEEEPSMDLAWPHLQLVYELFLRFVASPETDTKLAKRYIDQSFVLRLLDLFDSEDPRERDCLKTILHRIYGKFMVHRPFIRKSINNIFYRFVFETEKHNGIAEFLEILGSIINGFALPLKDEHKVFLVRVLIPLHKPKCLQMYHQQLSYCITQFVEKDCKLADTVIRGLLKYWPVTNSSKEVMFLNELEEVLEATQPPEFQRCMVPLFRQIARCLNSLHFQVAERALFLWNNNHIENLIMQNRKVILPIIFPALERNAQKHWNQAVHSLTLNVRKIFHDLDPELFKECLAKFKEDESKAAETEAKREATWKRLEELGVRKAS

[4] = molecular target: T1, GFP-B’α (Arabidopsis PP2A B’α subunit) (Arabidopsis thaliana); assay: as above
[5] = molecular target: T2, GFP-B’β (Arabidopsis PP2A B’β subunit) (Arabidopsis thaliana); assay: as above
[6] = molecular target: T4, GFP-B’ξ (Arabidopsis PP2A B’ξ subunit) (Arabidopsis thaliana) (UniProt Q9SV41); assay: as above
T4 sequence: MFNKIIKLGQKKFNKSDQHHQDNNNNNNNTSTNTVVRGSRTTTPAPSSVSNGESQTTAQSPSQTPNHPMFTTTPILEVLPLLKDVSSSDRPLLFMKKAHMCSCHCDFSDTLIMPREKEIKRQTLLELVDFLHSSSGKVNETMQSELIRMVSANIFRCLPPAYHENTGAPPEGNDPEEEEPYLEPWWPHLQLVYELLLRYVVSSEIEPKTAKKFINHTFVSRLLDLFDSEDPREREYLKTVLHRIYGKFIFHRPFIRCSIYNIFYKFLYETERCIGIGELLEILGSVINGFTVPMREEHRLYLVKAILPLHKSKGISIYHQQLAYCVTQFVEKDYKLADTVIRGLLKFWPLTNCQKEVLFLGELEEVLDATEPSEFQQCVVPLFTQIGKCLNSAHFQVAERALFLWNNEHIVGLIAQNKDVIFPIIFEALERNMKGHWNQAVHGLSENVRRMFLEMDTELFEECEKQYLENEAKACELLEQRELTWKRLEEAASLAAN

| Substance | binding [1] | binding [2] | binding [3] | binding [4] | binding [5] | binding [6] |
| --- | --- | --- | --- | --- | --- | --- |
| AvrE1-C’-HA (aa 889–1795) (Pseudomonas syringae pv. tomato DC3000) (domain or fragment) | binds | binds | no binding | binds | binds | binds |
| AvrE1-N’-HA (aa 1–898) (Pseudomonas syringae pv. tomato DC3000) (domain or fragment) | – | – | – | binds | binds | binds |

No constants are given. Whether binding was seen depends on the method and setting. In cells and extracts the contact can be indirect. For part of these data: Binding can be weak; no strength is given. Sequences can lack the tags named with a protein.
